In patent US20260022376A1 one finds binding data, which are given here for two substances.

Chains of the proteins cited; added tags and fusions are not shown. Lines headed by an entry give the natural chain unless they say otherwise; changes in a name come on top. A line that says so, or that is headed by a name, gives the form on record, which may keep a tag or linker. Residues count along the entry.
human tau with the P301L mutation expressed in Drosophila (GMR-TauP301L) (P10636, form named): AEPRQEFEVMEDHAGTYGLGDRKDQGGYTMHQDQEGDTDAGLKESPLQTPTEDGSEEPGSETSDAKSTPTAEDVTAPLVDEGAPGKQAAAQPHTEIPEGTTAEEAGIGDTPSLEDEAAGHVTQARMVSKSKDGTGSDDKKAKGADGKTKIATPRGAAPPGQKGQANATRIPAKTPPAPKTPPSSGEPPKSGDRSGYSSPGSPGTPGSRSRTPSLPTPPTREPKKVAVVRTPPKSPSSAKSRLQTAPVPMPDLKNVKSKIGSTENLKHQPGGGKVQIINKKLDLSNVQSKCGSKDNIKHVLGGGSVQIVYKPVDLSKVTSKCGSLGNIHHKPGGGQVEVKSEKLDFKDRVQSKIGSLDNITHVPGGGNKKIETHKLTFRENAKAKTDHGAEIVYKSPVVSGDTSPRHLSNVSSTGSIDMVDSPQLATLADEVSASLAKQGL
wild-type human Bassoon, full-length, overexpressed (HEK293T cells; Drosophila UAS-BSN line) (Q9UPA5, residues 2-3926): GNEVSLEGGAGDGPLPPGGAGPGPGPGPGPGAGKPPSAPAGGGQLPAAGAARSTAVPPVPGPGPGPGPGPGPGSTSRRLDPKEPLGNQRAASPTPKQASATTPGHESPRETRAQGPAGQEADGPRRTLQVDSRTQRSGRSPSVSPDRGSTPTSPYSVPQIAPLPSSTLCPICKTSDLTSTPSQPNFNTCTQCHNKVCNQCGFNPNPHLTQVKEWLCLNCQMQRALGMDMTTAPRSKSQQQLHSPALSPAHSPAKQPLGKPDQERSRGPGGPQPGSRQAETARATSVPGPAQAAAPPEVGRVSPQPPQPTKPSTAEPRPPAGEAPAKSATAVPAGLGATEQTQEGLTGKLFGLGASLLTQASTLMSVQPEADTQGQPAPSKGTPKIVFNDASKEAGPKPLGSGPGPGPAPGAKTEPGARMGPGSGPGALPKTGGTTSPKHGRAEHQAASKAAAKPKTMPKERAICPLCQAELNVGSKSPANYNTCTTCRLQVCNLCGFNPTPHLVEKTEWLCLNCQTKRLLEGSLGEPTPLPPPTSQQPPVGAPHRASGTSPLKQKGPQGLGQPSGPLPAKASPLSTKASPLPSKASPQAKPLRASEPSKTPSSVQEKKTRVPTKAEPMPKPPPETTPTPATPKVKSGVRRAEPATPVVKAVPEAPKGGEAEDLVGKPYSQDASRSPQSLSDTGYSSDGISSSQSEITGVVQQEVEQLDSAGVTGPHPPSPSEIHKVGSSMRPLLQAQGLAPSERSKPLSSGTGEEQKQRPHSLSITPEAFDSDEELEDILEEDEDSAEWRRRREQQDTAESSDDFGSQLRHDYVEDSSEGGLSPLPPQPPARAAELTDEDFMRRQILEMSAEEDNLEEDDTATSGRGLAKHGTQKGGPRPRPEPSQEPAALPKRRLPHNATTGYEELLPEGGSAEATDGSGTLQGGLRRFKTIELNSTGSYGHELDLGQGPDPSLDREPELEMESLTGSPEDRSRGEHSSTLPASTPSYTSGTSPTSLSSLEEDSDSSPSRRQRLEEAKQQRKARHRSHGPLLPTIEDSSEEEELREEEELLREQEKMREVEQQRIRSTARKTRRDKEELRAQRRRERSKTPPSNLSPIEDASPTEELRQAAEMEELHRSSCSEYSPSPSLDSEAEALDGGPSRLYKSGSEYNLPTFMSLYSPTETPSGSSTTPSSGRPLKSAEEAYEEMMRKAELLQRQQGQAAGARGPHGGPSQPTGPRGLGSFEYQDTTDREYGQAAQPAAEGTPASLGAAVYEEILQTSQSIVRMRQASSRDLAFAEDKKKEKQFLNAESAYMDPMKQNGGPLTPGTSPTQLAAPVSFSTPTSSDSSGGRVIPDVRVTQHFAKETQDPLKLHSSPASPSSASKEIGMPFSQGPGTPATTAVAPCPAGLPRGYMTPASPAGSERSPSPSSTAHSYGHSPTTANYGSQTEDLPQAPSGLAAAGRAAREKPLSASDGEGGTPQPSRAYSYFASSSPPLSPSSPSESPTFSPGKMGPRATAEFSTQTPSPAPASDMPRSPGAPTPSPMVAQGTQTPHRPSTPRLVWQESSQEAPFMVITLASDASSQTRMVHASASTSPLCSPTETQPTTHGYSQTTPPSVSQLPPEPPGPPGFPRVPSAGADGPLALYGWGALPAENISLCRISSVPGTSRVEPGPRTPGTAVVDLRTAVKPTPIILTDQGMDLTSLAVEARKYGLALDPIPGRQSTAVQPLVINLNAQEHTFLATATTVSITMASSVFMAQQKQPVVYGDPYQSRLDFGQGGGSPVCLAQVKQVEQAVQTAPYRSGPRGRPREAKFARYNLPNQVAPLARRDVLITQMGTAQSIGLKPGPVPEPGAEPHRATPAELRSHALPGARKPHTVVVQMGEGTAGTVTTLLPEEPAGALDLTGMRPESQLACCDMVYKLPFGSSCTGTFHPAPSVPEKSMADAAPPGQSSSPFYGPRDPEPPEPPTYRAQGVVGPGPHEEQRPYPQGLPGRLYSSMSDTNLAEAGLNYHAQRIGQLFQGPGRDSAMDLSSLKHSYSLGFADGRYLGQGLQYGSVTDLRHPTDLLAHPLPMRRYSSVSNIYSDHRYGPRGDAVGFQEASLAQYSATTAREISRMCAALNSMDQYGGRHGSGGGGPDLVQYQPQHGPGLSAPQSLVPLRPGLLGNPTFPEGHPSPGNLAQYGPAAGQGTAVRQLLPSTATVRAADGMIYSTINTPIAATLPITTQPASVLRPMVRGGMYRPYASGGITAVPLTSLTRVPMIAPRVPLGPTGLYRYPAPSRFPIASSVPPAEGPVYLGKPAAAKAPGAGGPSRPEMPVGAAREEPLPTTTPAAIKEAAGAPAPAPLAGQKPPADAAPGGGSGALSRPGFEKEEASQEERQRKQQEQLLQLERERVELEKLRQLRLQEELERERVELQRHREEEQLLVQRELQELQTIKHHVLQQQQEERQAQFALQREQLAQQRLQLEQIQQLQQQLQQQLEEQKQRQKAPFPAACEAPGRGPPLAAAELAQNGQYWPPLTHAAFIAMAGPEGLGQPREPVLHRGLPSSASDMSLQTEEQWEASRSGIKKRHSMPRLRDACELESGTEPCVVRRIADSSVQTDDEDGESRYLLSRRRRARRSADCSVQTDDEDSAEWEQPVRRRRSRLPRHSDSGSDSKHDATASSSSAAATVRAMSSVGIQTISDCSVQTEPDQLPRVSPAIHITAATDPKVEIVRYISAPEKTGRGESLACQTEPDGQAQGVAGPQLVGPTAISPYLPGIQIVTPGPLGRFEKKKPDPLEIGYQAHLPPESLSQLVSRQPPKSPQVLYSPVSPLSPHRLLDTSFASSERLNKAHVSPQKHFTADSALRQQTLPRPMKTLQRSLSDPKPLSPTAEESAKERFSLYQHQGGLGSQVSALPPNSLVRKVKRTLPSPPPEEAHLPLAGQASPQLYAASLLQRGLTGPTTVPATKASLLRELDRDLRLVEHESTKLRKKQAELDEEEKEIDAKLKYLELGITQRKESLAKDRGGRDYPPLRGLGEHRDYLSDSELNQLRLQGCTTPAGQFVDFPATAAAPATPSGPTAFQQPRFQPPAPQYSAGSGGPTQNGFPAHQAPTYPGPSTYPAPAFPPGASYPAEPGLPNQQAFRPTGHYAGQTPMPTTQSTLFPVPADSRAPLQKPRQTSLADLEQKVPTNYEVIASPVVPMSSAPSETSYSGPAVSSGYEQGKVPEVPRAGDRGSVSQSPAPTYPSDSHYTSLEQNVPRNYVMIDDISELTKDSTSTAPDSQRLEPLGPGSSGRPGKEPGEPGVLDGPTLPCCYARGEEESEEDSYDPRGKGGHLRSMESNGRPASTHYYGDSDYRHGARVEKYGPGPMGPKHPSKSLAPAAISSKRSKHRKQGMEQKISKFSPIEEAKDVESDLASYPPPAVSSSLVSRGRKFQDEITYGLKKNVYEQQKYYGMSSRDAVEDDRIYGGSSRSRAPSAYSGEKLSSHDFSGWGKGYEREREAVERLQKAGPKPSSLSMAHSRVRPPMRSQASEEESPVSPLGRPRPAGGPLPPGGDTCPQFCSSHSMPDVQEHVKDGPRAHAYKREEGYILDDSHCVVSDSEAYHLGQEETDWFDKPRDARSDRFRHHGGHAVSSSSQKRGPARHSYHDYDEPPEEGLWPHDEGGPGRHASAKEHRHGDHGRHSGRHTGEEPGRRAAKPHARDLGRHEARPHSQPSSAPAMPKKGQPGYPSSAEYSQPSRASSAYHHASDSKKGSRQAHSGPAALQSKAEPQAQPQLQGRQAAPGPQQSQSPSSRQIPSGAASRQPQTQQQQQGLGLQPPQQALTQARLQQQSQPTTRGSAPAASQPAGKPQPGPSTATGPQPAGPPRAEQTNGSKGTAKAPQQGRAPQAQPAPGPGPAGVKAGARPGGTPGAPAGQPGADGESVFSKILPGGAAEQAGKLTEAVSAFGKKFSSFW

No constants are given. Whether binding was seen depends on the method and setting. Binding seen in cells or lysates may run through a third protein. Some results given as binding are weak or reduced against the parent protein; the word gives no strength.

The target in this experiment is human tau with the P301L mutation expressed in Drosophila (GMR-TauP301L) (human) (UniProt P10636). Put plainly: co-IP of human tau (HT7) with BSN Western blot, fly head lysates.

Regarding “human BSN harboring the P3866A mutation, full-length, overexpressed in Drosophila (from UniProt Q9UPA5 2-3926)”, the binding entry was “binds”. The same measure for “wild-type human Bassoon, full-length, overexpressed (HEK293T cells; Drosophila UAS-BSN line) (from UniProt Q9UPA5 2-3926)”: “binds”.
